Measurements: paper PMC12552751
These are yes or no findings as the source states them, for the method shown. Binding seen in cells or lysates may run through a third protein.

By UniProt entry, the sequences of proteins in these tests, tags left out.
UniProt Q09472: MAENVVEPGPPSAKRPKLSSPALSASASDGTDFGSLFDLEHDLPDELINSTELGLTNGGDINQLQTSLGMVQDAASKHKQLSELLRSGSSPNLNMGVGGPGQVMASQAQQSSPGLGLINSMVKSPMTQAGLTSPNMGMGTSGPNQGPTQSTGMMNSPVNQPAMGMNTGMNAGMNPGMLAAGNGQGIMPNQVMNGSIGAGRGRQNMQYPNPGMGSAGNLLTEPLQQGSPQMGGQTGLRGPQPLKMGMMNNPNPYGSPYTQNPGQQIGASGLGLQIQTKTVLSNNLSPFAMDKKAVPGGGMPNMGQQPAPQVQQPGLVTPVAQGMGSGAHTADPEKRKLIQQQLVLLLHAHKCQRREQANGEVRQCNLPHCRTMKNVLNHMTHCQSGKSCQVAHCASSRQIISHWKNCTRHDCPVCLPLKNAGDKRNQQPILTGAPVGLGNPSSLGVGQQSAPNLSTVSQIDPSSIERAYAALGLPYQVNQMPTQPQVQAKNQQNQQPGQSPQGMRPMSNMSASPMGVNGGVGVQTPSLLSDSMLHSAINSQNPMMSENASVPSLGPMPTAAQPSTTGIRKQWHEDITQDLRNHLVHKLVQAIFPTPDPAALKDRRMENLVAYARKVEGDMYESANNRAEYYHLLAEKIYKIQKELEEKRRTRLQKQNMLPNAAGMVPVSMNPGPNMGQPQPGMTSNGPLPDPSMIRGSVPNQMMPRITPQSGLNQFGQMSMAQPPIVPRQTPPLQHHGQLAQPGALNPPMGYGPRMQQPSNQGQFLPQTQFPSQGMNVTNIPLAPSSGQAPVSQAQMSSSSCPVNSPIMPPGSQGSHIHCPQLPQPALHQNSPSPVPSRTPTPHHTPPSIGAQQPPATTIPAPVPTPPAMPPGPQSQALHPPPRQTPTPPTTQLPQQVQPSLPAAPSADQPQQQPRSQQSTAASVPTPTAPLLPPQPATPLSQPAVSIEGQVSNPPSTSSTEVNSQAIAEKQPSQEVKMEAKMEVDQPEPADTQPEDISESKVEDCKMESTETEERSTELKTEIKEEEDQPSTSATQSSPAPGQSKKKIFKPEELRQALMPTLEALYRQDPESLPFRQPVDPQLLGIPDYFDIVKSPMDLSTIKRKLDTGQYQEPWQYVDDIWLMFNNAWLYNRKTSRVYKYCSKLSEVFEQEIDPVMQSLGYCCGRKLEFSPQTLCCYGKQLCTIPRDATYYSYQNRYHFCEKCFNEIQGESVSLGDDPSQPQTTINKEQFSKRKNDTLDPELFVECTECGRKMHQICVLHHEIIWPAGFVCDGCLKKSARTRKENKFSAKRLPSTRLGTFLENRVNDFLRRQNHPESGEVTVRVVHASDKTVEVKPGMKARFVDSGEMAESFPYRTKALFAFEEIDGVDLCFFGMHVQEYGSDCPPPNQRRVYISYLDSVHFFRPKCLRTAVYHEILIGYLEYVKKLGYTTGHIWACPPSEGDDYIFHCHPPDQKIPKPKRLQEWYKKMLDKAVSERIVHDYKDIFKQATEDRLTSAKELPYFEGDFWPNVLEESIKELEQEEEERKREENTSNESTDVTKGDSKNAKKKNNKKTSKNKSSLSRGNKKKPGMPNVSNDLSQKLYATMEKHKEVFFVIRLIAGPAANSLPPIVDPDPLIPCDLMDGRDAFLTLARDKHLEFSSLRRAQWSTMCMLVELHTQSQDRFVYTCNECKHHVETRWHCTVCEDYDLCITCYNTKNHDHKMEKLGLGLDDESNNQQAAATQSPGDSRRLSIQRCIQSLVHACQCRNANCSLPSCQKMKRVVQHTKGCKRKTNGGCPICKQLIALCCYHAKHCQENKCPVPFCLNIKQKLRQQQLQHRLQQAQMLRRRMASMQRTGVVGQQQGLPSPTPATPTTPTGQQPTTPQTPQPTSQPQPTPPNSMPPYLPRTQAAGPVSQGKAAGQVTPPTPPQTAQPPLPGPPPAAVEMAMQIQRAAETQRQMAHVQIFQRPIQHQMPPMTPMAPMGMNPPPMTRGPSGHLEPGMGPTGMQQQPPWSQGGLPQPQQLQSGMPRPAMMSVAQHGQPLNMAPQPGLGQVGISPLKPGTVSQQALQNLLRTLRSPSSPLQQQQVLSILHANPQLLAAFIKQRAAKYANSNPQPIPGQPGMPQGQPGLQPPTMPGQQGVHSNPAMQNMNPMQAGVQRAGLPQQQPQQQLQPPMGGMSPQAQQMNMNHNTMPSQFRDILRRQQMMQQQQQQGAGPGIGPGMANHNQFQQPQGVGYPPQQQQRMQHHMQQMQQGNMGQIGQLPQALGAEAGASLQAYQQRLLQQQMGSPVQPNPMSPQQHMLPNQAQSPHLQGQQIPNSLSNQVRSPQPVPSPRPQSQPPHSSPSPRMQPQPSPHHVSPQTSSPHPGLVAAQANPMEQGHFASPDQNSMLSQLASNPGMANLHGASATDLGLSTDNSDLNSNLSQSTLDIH

Target: T1, TRIM35 (as used in the co-IP with p300, Fig. S2B) (human) (UniProt Q9UPQ4)
T1 sequence: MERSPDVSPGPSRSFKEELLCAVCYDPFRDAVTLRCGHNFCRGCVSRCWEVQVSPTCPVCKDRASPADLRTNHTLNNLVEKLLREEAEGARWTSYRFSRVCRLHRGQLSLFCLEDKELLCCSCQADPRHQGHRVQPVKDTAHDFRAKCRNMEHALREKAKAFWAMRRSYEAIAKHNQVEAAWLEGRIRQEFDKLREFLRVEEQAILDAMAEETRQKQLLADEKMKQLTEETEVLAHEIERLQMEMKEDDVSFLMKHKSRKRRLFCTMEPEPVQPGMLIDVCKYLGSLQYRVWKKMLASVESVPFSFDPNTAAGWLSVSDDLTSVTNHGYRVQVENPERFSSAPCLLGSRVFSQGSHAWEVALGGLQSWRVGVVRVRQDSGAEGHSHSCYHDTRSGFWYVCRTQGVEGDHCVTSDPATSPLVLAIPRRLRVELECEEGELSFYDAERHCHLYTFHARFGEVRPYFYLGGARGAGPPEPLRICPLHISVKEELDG
Experiment: co-IP; TRIM35 and p300, each precipitated in turn (Fig. S2B); cells not given; western blot

binding: no binding
Substance: p300 (from UniProt Q09472 1-2414) (enzyme)
